Here are results for two compounds from US5385941A, “Salts/ion pairs of non-steroidal anti-inflammatory drugs in various dosage forms” (Warner-Lambert Company, priority 1993, dated 1995).

The nature of data set [1]: Solubility in water at room temperature (excess compound, overnight shaking, filtration, HPLC).

As to `CN(C)CCOC(c1ccccc1)c1ccccc1.Cc1ccc(Cl)c(Nc2ccccc2C(=O)O)c1Cl` [MA/DPH, Meclofenamic acid-Diphenhydramine], in data set [1] (same methodology as Example II, Table 6), the “R.T. Solubility (Solubility of MA/DPH in Water)” value turned out to be 97 µg/mL.

Consider `CN(C)CCOC(c1ccccc1)c1ccccc1.O=C(O)c1ccccc1O` [SA/DPH, Salicylic acid-Diphenhydramine salt], for which the “solubility in polar organic solvents” value is on record as “soluble”. Also, the “aqueous solubility of DPH due to formation of the SA/DPH salt/ion-pair” value in data set [1] (compared with DPH base) is on record as “marked increase”. Moreover, the “R.T. SOLUBILITY (Solubility of SA/DPH in Water)” value in data set [1] (overnight shaking, SA/DPH calculated from DPH concentration by HPLC, Table 3) is 2827 µg/mL.
